B1: Q99JR1 (protein, UniProt Q99JR1 1-322, looked up)
chain: MSGEVPPNINIKEPRWDQSTFIGRASHFFTVTDPRNILLTNEQLENARKVVHDYRQGIVPAGLTENELWRAKYAYDSAFHPDTGEKMTLIGRMSAQVPMNMTITGCMMTFYRTTPAVLFWQWINQSFNAVVNYTNRSGDAPLTVNELGTAYVSATTGAVATALGLNALTKRVSPLIGRFVPFAAVAAANCINIPLMRQRELKVGIPVTDENGTRLGESTNAAKQAITQVVISRILMAAPGMAIPPFIMNTLEKKAFLKRFPWMSAPIQVTLVGFCLVFATPLCCALFPQKSSMSVTSLEDELQASIQRTHPEIRRVYFNKGL
modifications: full-length
B2: O08912 (protein, UniProt O08912 1-559, looked up)
chain: MRKFAYCKVVLATSLVWVLLDMFLLLYFSECNKCEEKQERGLPAGDVLELVQKPHEGPGEMGKPVVIPKEDQEKMKEMFKINQFNLMASEMIALNRSLPDVRLEGCKTKVYPDNLPTTSVVIVFHNEAWSTLLRTVHSVINRSPRHMIEEIVLVDDASERDFLKRPLESYVKKLKVPVHVIRMEQRSGLIRARLKGAAVSRGQVITFLDAHCECTAGWLEPLLARIKHDRRTVVCPIIDVISDDTFEYMAGSDMTYGGFNWKLNFRWYPVPQREMDRRKGDRTLPVRTPTMAGGLFSIDRDYFQEIGTYDAGMDIWGGENLEISFRIWQCGGTLEIVTCSHVGHVFRKATPYTFPGGTGQIINKNNRRLAEVWMDEFKNFFYIISPGVTKVDYGDISSRLGLRRKLQCKPFSWYLENIYPDSQIPRHYFSLGEIRNVETNQCLDNMARKENEKVGIFNCHGMGGNQVFSYTANKEIRTDDLCLDVSKLNGPVTMLKCHHLKGNQLWEYDPVKLTLQHVNSNQCLDKATEEDSQVPSIRDCTGSRSQQWLLRNVTLPEIF
modifications: full-length
B3: P16330 (protein, UniProt P16330 1-420, looked up)
chain: MNTSFTRKSHTFLPKLFFRKMSSSGAKEKPELQFPFLQDEDTVATLHECKTLFILRGLPGSGKSTLARLILEKYHDGTKMVSADAYKIIPGSRADFSEAYKRLDEDLAGYCRRDIRVLVLDDTNHERERLDQLFEMADQYQYQVVLVEPKTAWRLDCAQLKEKNQWQLSADDLKKLKPGLEKDFLPLYFGWFLTKKSSETLRKAGQVFLEELGNHKAFKKELRHFISGDEPKEKLELVSYFGKRPPGVLHCTTKFCDYGKAAGAEEYAQQEVVKRSYGKAFKLSISALFVTPKTAGAQVVLTDQELQLWPSDLDKPSASEGLPPGSRAHVTLGCAADVQPVQTGLDLLDILQQVKGGSQGEAVGELPRGKLYSLGKGRWMLSLTKKMEVKAIFTGYYGKGKPVPIHGSRKGGAMQICTII
modifications: full-length
B4: Q60932 (protein, UniProt Q60932 1-296, looked up)
chain: MCSFFLVLLLWQNMAVPPTYADLGKSARDVFTKGYGFGLIKLDLKTKSENGLEFTSSGSANTETTKVNGSLETKYRWTEYGLTFTEKWNTDNTLGTEITVEDQLARGLKLTFDSSFSPNTGKKNAKIKTGYKREHINLGCDVDFDIAGPSIRGALVLGYEGWLAGYQMNFETSKSRVTQSNFAVGYKTDEFQLHTNVNDGTEFGGSIYQKVNKKLETAVNLAWTAGNSNTRFGIAAKYQVDPDACFSAKVNNSSLIGLGYTQTLKPGIKLTLSALLDGKNVNAGGHKLGLGLEFQA
modifications: full-length
B5: Q9D8K3 (protein, UniProt Q9D8K3 1-228, looked up)
chain: MAGQRLAAGFLQVPAVTRAYTAACVLTTAAVQLELLSPFQLYFNPHLVFRKFQVWRLITTFLFFGPLGFGFFFNMLFVFRYCRMLEEGSFRGRKADFVFMFLFGGVLMTLLGFLGSLFFLGQALMAMLVYVWSRRSPHVRVNFFGLLNFQAPFLPWALMGFSLLLGNSVVTDLLGILVGHIYYFLEDVFPNQPGGKRLLLTPSVLKLLLDDPQEDPDYLPLPEEQPEL
modifications: full-length
B6: Q3TDQ1 (protein, UniProt Q3TDQ1 1-823, looked up)
chain: MAEPSAPESKHKSSLNSSPWSGLMALGNSRHGHHGPGTQSASSAAAPKPGPPAGLSGGLSQPAGWQSLLSFTILFLAWLAGFSSRLFAVIRFESIIHEFDPWFNYRSTHHLASHGFYEFLNWFDERAWYPLGRIVGGTVYPGLMITAGLIHWILNTLNITVHIRDVCVFLAPTFSGLTSISTFLLTRELWNQGAGLLAACFIAIVPGYISRSVAGSFDNEGIAIFALQFTYYLWVKSVKTGSVFWTMCCCLSYFYMVSAWGGYVFIINLIPLHVFVLLLMQRYSKRVYIAYSTFYIVGLILSMQIPFVGFQPIRTSEHMAAAGVFALLQAYAFLQYLRDRLTKQEFQTLFFLGVSLAAGAVFLSVIYLTYTGYIAPWSGRFYSLWDTGYAKIHIPIIASVSEHQPTTWVSFFFDLHILVCTFPAGLWFCIKNINDERVFVALYAISAVYFAGVMVRLMLTLTPVVCMLSAIAFSNVFEHYLGDDMKRENPPVEDSSDEDDKRNPGNLYDKAGKVRKHVTEQEKPEEGLGPNIKSIVTMLMLMLLMMFAVHCTWVTSNAYSSPSVVLASYNHDGTRNILDDFREAYFWLRQNTDEHARVMSWWDYGYQIAGMANRTTLVDNNTWNNSHIALVGKAMSSNETAAYKIMRSLDVDYVLVIFGGVIGYSGDDINKFLWMVRIAEGEHPKDIREGDYFTQQGEFRVDKAGSPTLLNCLMYKMSYYRFGEMQLDFRTPPGFDRTRNAEIGNKDIKFKHLEEAFTSEHWLVRIYKVKAPDNRETLGHKPRVTNIVPKQKYLSKKTTKRKRGYVKNKLVFKKGKKTSKKTV
modifications: full-length
B7: Q63739 (protein, UniProt Q63739 1-173, looked up)
chain: MARMNRPAPVEVTYKNMRFLITHNPTNATLNKFIEELKKYGVTTIVRVCEATYDTTLVEKEGIHVLDWPFDDGAPPSNQIVDDWLSLVKIKFREEPGCCIAVHCVAGLGRAPVLVALALIEGGMKYEDAVQFIRQKRRGAFNSKQLLYLEKYRPKMRLRFKDSNGHRNNCCIQ
modifications: full-length
B8: P41216 (protein, UniProt P41216 1-699, looked up)
chain: MEVHELFRYFRMPELIDIRQYVRTLPTNTLMGFGAFAALTTFWYATRPKALKPPCDLSMQSVEIAGTTDGIRRSAVLEDDKLLVYYYDDVRTMYDGFQRGIQVSNNGPCLGSRKPNQPYEWISYKEVAELAECIGSGLIQKGFKPCSEQFIGLFSQNRPEWVIVEQGCFSYSMVVVPLYDTLGADAITYIVNKAELSVIFADKPEKAKLLLEGVENKLTPCLKIIVIMDSYGSDLVERGKKCGVEIISLKALEDLGRVNRVKPKPPEPEDLAIICFTSGTTGNPKGAMITHQNIINDCSGFIKATESAFIASTDDVLISFLPLAHMFETVVECVMLCHGAKIGFFQGDIRLLMDDLKVLQPTIFPVVPRLLNRMFDRIFGQANTSLKRWLLDFASKRKEAELRSGIVRNNSLWDKLIFHKIQSSLGGKVRLMITGAAPVSATVLTFLRTALGCQFYEGYGQTECTAGCCLSLPGDWTAGHVGAPMPCNYVKLVDVEEMNYLASKGEGEVCVKGANVFKGYLKDPARTAEALDKDGWLHTGDIGKWLPNGTLKIIDRKKHIFKLAQGEYIAPEKIENIYLRSEAVAQVFVHGESLQAFLIAVVVPDVESLPSWAQKRGLQGSFEELCRNKDINKAILDDLLKLGKEAGLKPFEQVKGIAVHPELFSIDNGLLTPTLKAKRPELRNYFRSQIDELYATIKI
modifications: full-length
B9: Q9WUQ2 (protein, UniProt Q9WUQ2 1-417, looked up)
chain: MGRRRGVELYRAPFPLYALRIDPKTGLLIAAGGGGAAKTGIKNGVHFLQLELINGCLSASLLHSHDTETRATMNLALAGDILAAGQDAQCQLLRFQVHQQKGSKAEKSGSKEQGPRQRKGAPPAEKKSGAQVHPEGVELKVKNLEAVQTDFSNEPLQKVVCFNHDNTLLATGGTDGHVRVWKVPSLEKVLEFKAHEGEIGDLTLGPDGKLVTVGWDFKASVWQKDQLVTQLQWQENGPASSNTPYRYQACRFGQVPDQLGGLRLFTVQIPHKRLRQPPPCYLTAWDSSTFLPLRTRSCGHEVISCLSVSDSGTFLGLGTVTGSVAIYIAFSLQRLYYVKEAHGIVVTDVTFLPEKGCGPKLLGPHETALFSVAVDSRCQLHLLPSRRSVPVWLLLLLCVGLIIVTILLLQTAFPGFL
modifications: full-length
B10: Q80X73 (protein, UniProt Q80X73 1-385, looked up)
chain: MKLVRKDIEKDNAGQVTLVPEEPEDMWHTFNLVQVGDSLRASTIRKVQTESSTGSVGSNRVRTTLTLCVEAIDFDSQACQLRVKGTNIQENEYVKMGAYHTIELEPNRQFTLAKKQWDSVVLERIEQACDPAWSADVAAVVMQEGLAHVCLVTPSMTLTRAKVEVNIPRKRKGNCSQHDRALERFYEQVVQAIQRHINFEVVKCVLVASPGFVREQFCDYMFQQAVKTDNKVLLENRSKFLQVHASSGHKYSLKEALCDPTVASRLSDTKAAGEVKALDDFYKMLQHEPDRAFYGLKQVERANEALAIDTLLISDELFRHQDVATRSRYVRLVDSVKENAGTVRIFSSLHVSGEQLGQLTGVAAILRFPVPELSDQEDDSSSEED
modifications: full-length
B11: Q9D1Q4 (protein, UniProt Q9D1Q4 1-92, looked up)
chain: MTKLTQWLWGLALLGSAWAALTMGALGLELPFPCREVLWPLPAYLLVSAGCYALGTVGYRVATFHDCEDAARELQSQIVEARADLARRGLRF
modifications: full-length
B12: Q9DBG7 (protein, UniProt Q9DBG7 1-636, looked up)
chain: MLDFFTIFSKGGLVLWCFQGVSDSCTGPVNALIRSVLLQERGGNNSFTHEALTLKYKLDNQFELVFVVGFQKILTLTYVDKLIDDVHRLFRDKYRTEIQQQSALSLLNGTFDFQNDFLRLLREAEESSKIRAPTTMKKFEDSEKAKKPVRSMIETRGEKTKEKAKNNKKRGAKKEGSDGTLATSKTAPAEKSGLSAGPENGELSKEELIRRKREEFIQKHGKGLDKSSKSTKSDTPKEKGKKAPRVWELGGCANKEVLDYSTPTTNGTPEAALSEDINLIRGTGPGGQLQDLDCSSSDDEGATQNTKPSATKGTLGGMFGMLKGLVGSKSLSREDMESVLDKMRDHLIAKNVAADIAVQLCESVANKLEGKVMGTFSTVTSTVKQALQESLVQILQPQRRVDMLRDIMDAQRRQRPYVVTFCGVNGVGKSTNLAKISFWLLENGFSVLIAACDTFRAGAVEQLRTHTRRLTALHPPEKHGGRTMVQLFEKGYGKDAAGIAMEAIAFARNQGFDVVLVDTAGRMQDNAPLMTALAKLITVNTPDLVLFVGEALVGNEAVDQLVKFNRALADHSMAQTPRLIDGIVLTKFDTIDDKVGAAISMTYITSKPIVFVGTGQTYCDLRSLNAKAVVAALMKA
modifications: full-length

Assay: Proteomic analysis of native murine pancreata and decelled pancreatic ECM (Table 1)
Parameters: species or system mouse
Conditions: Native pancreas tissue

Molecule	Mean of log2(intensities) [a.u.]
B1	27.21
B2	23.50
B3	24.45
B4	29.41
B5	24.62
B6	27.60
B7	23.59
B8	24.38
B9	28.00
B10	24.44

Same assay, conditions: Pancreatic ECM (decelled)

Molecule	Mean of log2(intensities) [a.u.]
B1	28.73
B2	25.31
B3	26.21
B4	31.11
B5	26.23
B6	29.17
B7	25.34
B8	26.17
B9	29.62
B10	26.22

Same assay, conditions: decelled pancreatic ECM (spin-decell protocol)

Molecule	Mean of log2(intensities), Pancreatic ECM [a.u.]
B11	26.66
B12	30.88

Same assay, conditions: native murine pancreas tissue

Molecule	Mean of log2(intensities), Native pancreas tissue [a.u.]
B11	25.27
B12	29.39

— US20240108662A1, “ENGINEERED CELLS FUNCTIONALIZED WITH IMMUNE CHECKPOINT MOLECULES AND USES THEREOF” (The University of North Carolina at Chapel Hill, priority 2020, published 2024)
